We go through 13 molecules from patent US20210238292A1 (VACCINEX, published 2021).

The chains behind the UniProt entries cited, without tags or fusion partners. Where a name states a change or a piece, a line headed by the entry shows the natural chain unless it says otherwise. A line that says so, or that is headed by a name, gives the form on record, which may keep a tag or linker. Residues count along the entry.
cynomolgus monkey CCR8 expressed on cells (G7NYJ2, form named): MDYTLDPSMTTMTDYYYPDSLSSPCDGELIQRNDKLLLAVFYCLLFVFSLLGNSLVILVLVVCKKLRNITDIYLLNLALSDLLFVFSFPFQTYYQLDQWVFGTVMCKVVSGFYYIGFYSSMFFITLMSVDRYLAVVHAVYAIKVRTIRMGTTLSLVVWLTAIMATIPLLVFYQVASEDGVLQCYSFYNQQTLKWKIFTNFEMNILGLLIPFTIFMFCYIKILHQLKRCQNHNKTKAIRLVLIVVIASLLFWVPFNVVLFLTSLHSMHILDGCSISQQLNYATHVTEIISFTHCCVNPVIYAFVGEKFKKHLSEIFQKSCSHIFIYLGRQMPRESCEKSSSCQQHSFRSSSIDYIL
UniProt Q06481, residues 32-763: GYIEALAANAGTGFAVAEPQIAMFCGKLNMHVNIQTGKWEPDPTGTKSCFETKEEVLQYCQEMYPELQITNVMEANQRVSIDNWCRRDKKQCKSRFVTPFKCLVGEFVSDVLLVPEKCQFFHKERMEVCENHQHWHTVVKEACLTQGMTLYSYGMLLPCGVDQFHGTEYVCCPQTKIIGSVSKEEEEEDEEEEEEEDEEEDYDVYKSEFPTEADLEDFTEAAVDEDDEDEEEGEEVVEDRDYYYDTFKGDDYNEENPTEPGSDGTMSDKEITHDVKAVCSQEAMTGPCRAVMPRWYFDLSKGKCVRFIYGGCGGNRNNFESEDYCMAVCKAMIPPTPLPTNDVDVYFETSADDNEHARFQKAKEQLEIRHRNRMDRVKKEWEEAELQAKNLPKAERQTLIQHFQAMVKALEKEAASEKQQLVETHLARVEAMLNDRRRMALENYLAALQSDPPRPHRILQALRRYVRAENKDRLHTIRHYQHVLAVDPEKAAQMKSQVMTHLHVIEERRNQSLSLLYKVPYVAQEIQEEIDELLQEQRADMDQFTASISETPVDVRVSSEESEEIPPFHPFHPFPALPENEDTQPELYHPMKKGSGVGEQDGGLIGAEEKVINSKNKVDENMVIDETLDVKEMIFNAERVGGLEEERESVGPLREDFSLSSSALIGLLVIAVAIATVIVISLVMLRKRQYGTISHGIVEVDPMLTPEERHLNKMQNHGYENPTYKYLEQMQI

Assay [1] deals with cynomolgus monkey CCR8 expressed on cells (cynomolgus monkey) (UniProt G7NYJ2). The assay is described as follows: flow cytometry, CyCCR8-293T cells, fold geomean over secondary alone.
The target is the same in assay [2]. The assay is described as follows: flow cytometry on 293T transfectants. (Flow cytometry measures light scatter and fluorescence of single cells or particles in a stream.)
Assay [3] shares this target. The assay is described as follows: flow cytometry, CynoCCR8-293T cells, fold geomean over secondary alone.
A further assay addresses T1, Human CCR8-ECD-Fc (human).
T1 construct: also called HuCCR8-ECD-Fc; huCC8-ECD-Fc
T1 chain: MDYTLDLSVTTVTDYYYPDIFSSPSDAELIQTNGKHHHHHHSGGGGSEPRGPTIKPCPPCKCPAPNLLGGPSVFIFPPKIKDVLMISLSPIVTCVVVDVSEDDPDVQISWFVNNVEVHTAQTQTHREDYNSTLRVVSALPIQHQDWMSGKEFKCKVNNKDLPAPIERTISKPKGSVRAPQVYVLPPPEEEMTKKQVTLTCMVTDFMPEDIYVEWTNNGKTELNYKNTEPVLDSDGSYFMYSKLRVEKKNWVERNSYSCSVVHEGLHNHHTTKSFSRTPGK
The assay is described as follows: binding to HuCCR8-ECD-Fc protein, graded.

Assay [4] concerns the target cynomolgus monkey CCR8 expressed on cells (cynomolgus monkey) (UniProt G7NYJ2). The assay is described as follows: flow cytometry, cynoCCR8-293T cells, fold geomean over secondary alone.
The target is the same in assay [5]. The assay is described as follows: on-cell Kd, antibody titration on cells expressing cyno CCR8, flow cytometry.
The target in assay [6] is amyloid precursor-like protein 2 (APLP2) (UniProt Q06481). The assay is described as follows: on-cell Kd, antibody titration on cells expressing APLP2, flow cytometry.
Assay [7] concerns the target cynomolgus monkey CCR8 expressed on cells (cynomolgus monkey) (UniProt G7NYJ2). The assay is described as follows: flow cytometry, dose titration on cells infected with cynomolgus monkey CCR8 lentivirus.
In assay [8] the target is amyloid precursor-like protein 2 (APLP2) (UniProt Q06481). The assay is described as follows: Retrogenix screen on cells forced to express about 4,500 cell surface proteins.

Numbering of substitutions follows the chain as printed. No constants are given. Whether binding was seen depends on the method and setting. Some binding calls cover weakened binding; strength is not graded here.

B1: anti-CCR8-2-8 (antibody, V domains shown)
VH: EVQLVESGGGLVQPGRSLRLSCAASGFTFDDYAMHWVRQAPGKGLEWVSGISWNSGSIGYADSVKGRFTISRDNSKNSLYLQMNSLRAEDTALYYCARGRRSYRDSLRFDYWGQGTLVTVSS
VL: QSVLTQPPSVSGAPGQRVTISCTGSGSNIGNNYVSWYQQLPGTAPKMLIYDNTRRPSGIPDRFSGSKSDTSATLGITGLQTGDEADYYCGAWDSSLRMWVFGGGTKLTVL
notes: Human IgG
B1: the binding result in [1] and in assay [2] was “binds” in each case.

B2: anti-CCR8-2-10 (antibody, V domains shown)
VH: B1 VH with R101K
VL: QSVLTQPPSVSAAPGQKVTISCSGTSSNIGKNFVSWYQQLPGTAPKLLIYDDNKRPSGIPDRFSGSKSATSATLGITGLQTGDGADYYCGTWDSSLSAWVFGGGTKLTVL
notes: Human IgG
With B2, the binding result in assay [1] and in assay [2] was “binds” in each case.

B3: anti-CCR8-2-9 (antibody, V domains shown)
VH: B1 VH with R101K
VL: B1 VL
notes: Human IgG
On to B3, for which the binding result in assay [1] and in [2] was “binds” throughout.

B4: anti-CCR8-2-7 (antibody, V domains shown)
VH: B1 VH with R101D, D105K
VL: B1 VL
notes: Human IgG
As for B4, the binding result in [1] and in assay [2] was “binds” throughout.

B5: anti-CCR8-2-2 (antibody, V domains shown)
VH: EVQLLESGGGLVQPGGSLRLSCAAGGFTFSAYTMNWVRQAPGKGLEWVSAISASGGRTYYADSVKGRFTISRDNSKNTLYLQMNSLRAEDTAVYYCARRFARGWFDPWGQGTLVT
VL: QSVLTQPPSVSAAPGQRVTISCSGSTSNIGNHYVSWYQQLPRAVPKLVIYDNDKRPSGISDRFSGSRSGTSATLDISGLQAGDEADYYCATWDYSLTAVVFGGGTKLTVL
notes: Heavy chain of anti-CCR8-2 (H23727) cross-paired with a shuffled lambda light chain; Human IgG
As for B5, the binding entry in [3] is listed as “binds”.

B6: anti-CCR8-parental-1 (antibody, V domains shown)
VH: QVQLVQSGAEVKKPGASVKVSCKASGYTFTSYYMHWVRQAPGQGLEWMGIINPSGGSTSYAQKFQGRVTMTRDTSTSTVYMELSSLRSEDTAVYYCARGVGNGFRFDYWGQGTLVT
VL: QSALTQPASVSGSPGQSITISCTGTSSDVGSYNLVSWYQQHPGKAPKLMIYEVSKRPSGVSNRFSGSKSGNTASLTISGLQAEDEADYYCSSYAGSSTFVVFGGGTKLTVL
notes: Full-length human IgG; also called parental antibody; H23188/L1037
As for B6, in the assay with Human CCR8-ECD-Fc, the binding result is reported as “binds”.

B7: anti-CCR8-1-5 (antibody, V domains shown)
VH: B6 VH
VL: B6 VL with A8P, T23S, H41E, M49I, S54N, Y89H, F99Y
notes: Parental-1 heavy chain with a shuffled lambda light chain; Human IgG expressed in CHO cells
Take B7: the binding entry in [4] is “binds”.

B8: anti-CCR8-1-4 (antibody, V domains shown)
VH: B6 VH
VL: QSALTQPASVSGSPGQSITISCSGTSSNIGKYNLVSWYQQHPGEAPTLLIYEATKRPSGVSNRFSGSKSGNTASLTISGLQAEDEADYICSSYAGSRVFVVFGGGTKLTVL
notes: as for B7
As to B8, the binding result in assay [4] is “binds”.

B9: anti-CCR8-1-1 (antibody, V domains shown)
VH: B6 VH
VL: B6 VL with A8P, S31T, K44N, S54T, S74T, Y89H, S97I, F99H
notes: Parental-1 heavy chain with a shuffled lambda light chain; Expressed from a mammalian expression vector in CHO cells as human IgG
As to B9, the binding entry in [4] is recorded as “binds”.

B10: anti-CCR8-2 (antibody, V domains shown)
VH: EVQLLESGGGLVQPGGSLRLSCAAGGFTFSAYTMNWVRQAPGKGLEWVSAISASGGRTYYADSVKGRFTISRDNSKNTLYLQMNSLRAEDTAVYYCARRFARGWFDPWGQGTLVTVSS
VL: QSVLTQPPSVSAAPGQKVTISCSGSSSNIGNNYVSWYQQLPGTAPKLLIYDNNKRPSGIPDRFSGSKSGTSATLGITGLQTGDEADYYCGTWDSSLSAWVFGGGTKLT
notes: Cloned into mammalian expression vectors; human IgG; also called heavy chain H23727
In the case of B10, the binding entry in assay [5], in assay [6], in assay [7], in assay [8], in [2] and in assay [3] was “binds” in each case.

B11: anti-CCR8-2-3 (antibody, V domains shown)
VH: B1 VH with R101K
VL: B10 VL
notes: Human IgG from a mammalian expression vector in CHO cells; also called heavy chain H23499
Consider B11, for which the binding entry in assay [1] and in assay [2] was “binds” in each case.

B12: anti-CCR8-2-6 (antibody, V domains shown)
VH: EVQLVESGGGLVQPGRSLRLSCAASGFTFDDYAMHWVRQAPGKGLEWVSGISWNSGSIGYADSVKGRFTISRDNSKNSLYLQMNSLRAEDTALYYCARGRVSYRESLRFDYWGQGTLVT
VL: B10 VL
notes: Human IgG
On to B12, for which the binding entry in assay [2] and in [3] was “binds” each time.

B13: anti-CCR8-2-1 (antibody, V domains shown)
VH: B10 VH with G25R, T28I, A31G, N35L, S52T
VL: B10 VL
notes: Human IgG from a mammalian expression vector
B13: the binding result in assay [2] and in assay [3] was “binds” each time.
